Assay results: the supplement of paper PMC10849652
Some of the results follow.

Amino acid sequences for entries named in this document (tags omitted). A change or cut given only in a name is not applied to a line headed by its entry.
UniProt O60704: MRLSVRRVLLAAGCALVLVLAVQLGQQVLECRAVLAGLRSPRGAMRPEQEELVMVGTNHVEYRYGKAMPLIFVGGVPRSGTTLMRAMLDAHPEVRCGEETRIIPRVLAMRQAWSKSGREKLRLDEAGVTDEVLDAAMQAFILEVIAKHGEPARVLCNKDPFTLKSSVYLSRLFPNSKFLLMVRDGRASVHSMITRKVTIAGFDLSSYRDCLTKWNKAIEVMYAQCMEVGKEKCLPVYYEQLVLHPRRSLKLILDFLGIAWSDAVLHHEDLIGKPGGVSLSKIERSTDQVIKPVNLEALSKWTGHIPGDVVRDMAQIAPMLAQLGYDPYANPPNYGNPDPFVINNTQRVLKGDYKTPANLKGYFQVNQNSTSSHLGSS
UniProt Q9H497: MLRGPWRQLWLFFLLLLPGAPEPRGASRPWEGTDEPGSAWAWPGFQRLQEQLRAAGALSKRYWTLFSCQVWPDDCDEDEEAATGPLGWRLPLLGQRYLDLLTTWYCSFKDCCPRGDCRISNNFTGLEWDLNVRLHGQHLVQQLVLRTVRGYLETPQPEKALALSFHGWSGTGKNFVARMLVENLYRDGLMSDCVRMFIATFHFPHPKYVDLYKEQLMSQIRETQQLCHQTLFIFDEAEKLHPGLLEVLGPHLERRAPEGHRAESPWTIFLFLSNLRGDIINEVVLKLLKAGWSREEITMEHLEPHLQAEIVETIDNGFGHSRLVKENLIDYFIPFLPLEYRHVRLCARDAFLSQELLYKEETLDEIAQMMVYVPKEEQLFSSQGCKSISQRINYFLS
UniProt Q96MH6: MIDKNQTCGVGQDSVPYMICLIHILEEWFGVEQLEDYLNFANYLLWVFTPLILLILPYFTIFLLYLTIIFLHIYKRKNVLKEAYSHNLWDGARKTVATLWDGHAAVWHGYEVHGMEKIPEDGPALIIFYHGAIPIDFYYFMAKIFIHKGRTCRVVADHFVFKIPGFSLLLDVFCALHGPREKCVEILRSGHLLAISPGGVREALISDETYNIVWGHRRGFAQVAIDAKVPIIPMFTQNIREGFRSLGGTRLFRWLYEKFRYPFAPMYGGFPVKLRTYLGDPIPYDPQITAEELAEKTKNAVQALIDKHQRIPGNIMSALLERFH
UniProt Q6UW68: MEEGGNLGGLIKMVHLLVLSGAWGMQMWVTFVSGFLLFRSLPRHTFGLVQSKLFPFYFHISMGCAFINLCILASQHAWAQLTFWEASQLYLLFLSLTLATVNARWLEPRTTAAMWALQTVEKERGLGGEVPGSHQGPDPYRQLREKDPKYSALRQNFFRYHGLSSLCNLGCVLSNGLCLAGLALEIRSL
UniProt P42166: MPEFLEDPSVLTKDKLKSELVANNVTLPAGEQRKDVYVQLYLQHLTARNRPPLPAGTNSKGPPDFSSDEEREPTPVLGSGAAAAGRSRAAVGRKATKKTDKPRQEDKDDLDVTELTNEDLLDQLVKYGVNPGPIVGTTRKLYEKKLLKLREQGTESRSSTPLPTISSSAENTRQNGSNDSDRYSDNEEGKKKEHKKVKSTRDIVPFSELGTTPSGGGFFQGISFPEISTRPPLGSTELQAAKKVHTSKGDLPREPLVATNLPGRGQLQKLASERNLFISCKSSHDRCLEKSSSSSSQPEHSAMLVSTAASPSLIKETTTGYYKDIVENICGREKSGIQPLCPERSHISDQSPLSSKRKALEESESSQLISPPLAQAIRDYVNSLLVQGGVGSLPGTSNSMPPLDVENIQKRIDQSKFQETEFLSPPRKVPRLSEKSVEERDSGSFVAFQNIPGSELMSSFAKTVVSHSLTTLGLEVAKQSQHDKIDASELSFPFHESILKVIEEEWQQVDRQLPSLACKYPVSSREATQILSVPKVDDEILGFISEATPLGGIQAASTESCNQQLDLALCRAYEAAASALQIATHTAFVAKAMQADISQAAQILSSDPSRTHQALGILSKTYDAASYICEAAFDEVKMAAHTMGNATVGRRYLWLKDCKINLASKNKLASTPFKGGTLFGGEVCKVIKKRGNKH
UniProt P63313: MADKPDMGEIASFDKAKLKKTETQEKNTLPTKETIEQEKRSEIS
UniProt Q03169: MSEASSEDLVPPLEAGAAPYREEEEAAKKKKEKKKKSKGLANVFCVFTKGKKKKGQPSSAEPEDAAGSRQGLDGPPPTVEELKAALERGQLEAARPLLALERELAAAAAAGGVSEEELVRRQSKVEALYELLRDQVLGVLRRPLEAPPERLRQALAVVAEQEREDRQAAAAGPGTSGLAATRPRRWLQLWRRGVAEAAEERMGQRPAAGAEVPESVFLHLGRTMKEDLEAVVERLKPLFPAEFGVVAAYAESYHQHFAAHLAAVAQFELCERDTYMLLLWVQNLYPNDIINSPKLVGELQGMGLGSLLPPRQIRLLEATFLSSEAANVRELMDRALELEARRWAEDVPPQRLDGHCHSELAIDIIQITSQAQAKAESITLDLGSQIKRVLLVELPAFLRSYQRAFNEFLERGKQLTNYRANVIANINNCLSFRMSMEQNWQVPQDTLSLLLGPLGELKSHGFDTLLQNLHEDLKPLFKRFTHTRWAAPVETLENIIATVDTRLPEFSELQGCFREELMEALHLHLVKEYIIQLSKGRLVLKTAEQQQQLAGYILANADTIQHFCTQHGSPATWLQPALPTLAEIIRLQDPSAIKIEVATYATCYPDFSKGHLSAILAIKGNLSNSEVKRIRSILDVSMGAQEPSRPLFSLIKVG
UniProt Q8N4H5: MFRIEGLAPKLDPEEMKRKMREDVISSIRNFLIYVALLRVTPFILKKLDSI
UniProt Q9Y320, whole entry, looked up: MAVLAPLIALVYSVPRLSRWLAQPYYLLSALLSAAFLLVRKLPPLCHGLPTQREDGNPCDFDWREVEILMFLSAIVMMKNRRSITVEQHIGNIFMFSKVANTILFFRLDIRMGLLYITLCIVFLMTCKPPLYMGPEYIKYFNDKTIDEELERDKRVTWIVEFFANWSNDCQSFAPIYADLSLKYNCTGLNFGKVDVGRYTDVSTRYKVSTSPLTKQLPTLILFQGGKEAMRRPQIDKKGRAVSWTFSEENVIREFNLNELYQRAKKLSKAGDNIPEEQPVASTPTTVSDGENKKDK
UniProt Q9NVV0: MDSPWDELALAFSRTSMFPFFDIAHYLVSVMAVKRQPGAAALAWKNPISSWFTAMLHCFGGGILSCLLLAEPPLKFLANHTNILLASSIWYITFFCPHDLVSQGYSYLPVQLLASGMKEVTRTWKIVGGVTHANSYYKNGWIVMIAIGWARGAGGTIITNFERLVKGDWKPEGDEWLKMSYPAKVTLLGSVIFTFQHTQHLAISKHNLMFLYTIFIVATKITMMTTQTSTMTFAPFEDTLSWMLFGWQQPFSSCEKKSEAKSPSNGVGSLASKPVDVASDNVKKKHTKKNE
UniProt O00220, whole entry, looked up: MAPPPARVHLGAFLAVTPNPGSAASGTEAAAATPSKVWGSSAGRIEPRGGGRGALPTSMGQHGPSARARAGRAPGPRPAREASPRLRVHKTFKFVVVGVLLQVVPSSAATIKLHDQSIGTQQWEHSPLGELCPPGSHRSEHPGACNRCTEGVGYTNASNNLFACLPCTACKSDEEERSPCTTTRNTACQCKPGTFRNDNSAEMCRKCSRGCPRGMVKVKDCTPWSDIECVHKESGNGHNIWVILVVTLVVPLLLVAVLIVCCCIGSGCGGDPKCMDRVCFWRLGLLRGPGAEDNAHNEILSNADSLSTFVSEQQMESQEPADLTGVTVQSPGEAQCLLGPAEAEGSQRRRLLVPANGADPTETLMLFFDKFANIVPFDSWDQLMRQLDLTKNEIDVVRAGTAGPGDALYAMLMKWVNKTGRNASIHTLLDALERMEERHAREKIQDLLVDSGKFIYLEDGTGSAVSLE
UniProt Q9BUB7: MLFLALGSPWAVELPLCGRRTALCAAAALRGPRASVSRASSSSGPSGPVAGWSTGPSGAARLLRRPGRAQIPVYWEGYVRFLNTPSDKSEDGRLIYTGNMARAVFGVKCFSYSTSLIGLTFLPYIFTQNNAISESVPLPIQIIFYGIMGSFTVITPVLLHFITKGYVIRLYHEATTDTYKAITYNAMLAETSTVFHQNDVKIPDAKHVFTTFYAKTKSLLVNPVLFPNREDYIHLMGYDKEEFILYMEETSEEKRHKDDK
UniProt Q6ZVM7: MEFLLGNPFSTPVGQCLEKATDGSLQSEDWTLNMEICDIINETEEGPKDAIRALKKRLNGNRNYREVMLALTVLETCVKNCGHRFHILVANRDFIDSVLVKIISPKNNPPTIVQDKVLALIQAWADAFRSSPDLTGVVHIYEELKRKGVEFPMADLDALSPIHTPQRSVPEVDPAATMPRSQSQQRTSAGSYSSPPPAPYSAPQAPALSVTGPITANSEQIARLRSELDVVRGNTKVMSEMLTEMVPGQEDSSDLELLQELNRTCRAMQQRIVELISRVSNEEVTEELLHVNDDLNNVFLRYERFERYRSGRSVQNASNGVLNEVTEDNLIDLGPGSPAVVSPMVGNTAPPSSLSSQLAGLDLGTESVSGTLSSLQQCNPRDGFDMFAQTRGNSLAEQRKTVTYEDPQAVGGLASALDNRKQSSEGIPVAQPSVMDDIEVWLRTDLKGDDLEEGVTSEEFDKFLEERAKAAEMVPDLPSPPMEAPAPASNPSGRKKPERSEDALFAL
UniProt Q96K49: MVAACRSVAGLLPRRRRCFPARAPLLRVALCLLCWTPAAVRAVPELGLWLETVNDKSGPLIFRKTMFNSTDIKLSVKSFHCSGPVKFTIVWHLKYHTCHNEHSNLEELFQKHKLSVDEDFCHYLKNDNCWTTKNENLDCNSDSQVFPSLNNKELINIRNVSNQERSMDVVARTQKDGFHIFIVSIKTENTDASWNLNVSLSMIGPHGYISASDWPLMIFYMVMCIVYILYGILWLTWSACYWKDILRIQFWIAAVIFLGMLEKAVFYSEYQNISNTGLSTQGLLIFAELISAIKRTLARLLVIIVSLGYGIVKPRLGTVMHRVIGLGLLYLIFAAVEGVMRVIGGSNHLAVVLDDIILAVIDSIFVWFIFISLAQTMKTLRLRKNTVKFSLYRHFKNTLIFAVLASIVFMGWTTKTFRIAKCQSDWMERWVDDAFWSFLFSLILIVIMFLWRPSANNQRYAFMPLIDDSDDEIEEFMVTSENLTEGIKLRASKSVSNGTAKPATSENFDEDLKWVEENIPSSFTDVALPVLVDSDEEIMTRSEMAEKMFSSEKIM
UniProt Q6NUQ4: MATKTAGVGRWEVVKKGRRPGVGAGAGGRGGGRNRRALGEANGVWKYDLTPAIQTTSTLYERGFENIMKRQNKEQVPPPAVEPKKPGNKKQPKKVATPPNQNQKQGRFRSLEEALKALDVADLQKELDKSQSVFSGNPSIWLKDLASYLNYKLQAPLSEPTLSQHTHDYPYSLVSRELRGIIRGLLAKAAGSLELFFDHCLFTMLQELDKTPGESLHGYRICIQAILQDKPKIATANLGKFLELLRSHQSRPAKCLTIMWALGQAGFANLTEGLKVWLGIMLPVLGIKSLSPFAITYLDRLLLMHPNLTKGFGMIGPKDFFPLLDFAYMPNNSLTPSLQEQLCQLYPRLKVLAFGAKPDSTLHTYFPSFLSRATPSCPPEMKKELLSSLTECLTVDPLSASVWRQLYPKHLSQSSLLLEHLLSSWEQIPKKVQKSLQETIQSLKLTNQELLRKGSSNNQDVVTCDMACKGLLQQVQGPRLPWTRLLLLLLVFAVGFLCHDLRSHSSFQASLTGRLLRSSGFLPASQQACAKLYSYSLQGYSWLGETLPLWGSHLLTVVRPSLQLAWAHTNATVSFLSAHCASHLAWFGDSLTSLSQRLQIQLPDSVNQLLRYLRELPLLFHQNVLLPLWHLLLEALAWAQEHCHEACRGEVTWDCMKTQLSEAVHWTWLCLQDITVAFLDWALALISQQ

How the values were obtained:
Experiment in all cases: log2 fold change, soluble protein after heating vs DMSO (PISA); higher = thermal stabilisation; K562 lysate, 10 uM; active = over 0.2 and 3.5 SD of the protein, either way, in both replicates (recomputed)
erlotinib = compound: C#Cc1cccc(Nc2ncnc3cc(OCCOC)c(OCCOC)cc23)c1 [erlotinib]
In short: (§1)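 Thermal stability, expressed as log-two fold change relative to solvent controls, is given from duplicates. Crude K562 extract in PBS pH 7.4 with 1 mM MgCl2, at 1 mg/mL protein, was treated with 10 μM compound for 30 min and heated in aliquots for 3 min across 48°C-58°C. After pooling, adjustment to 0.5% NP-40 at 4°C and centrifugation at 21,000xg for 90 min, supernatant protein was measured by TMTpro 16plex LC-MS/MS with channel sums equalised.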

[1] = compound: C/C(=N\NC(=O)C1=CC(=CC=C1)S(=O)(=O)N2CCOCC2)/C3=C(C=CC(=C3)Cl)O
In short: as §1

[2] = compound: C1=CC(=CC=C1C2=NC3=C(N2)C=C(C=C3)C(=O)N)OC4=CC=C(C=C4)Cl
In short: as §1

[3] = compound: C1=CC2=C(C=CC(=C2)/C=C\3/C(=O)NC(=NCC4=CC=CS4)S3)N=C1
In short: as §1

[4] = compound: C1=CC2=NC=CN=C2C=C1/C=C/3\C(=O)NC(=O)S3
In short: as §1

[5] = compound: C1=CC=C(C=C1)C2=NC(=C(N2)C3=CC=NC=C3)C4=CC(=C(C=C4)Cl)O
In short: as §1

[6] = compound: C1=CC=C2C(=C1)C3=NNC4=CC=CC(=C43)C2=O
In short: as §1

[7] = compound: C1CCN(C1)C(=O)NC2=CC=CC(=C2)NC3=NC=C(C(=N3)NCCC4=CN=CN4)Br
In short: as §1

[8] = compound: C1CN(CCC1(CC2=CC=C(C=C2)Cl)N)C3=NC=NC4=C3C=CN4
In short: as §1

IRAK-1-4 Inhibitor I = compound: C1COCCN1CCN2C3=CC=CC=C3N=C2NC(=O)C4=CC(=CC=C4)[N+](=O)[O-] [IRAK-1-4 Inhibitor I]
In short: as §1

ibrutinib = compound: C=CC(=O)N1CCC[C@@H](n2nc(-c3ccc(Oc4ccccc4)cc3)c3c(N)ncnc32)C1 [ibrutinib]
In short: as §1

[9] = compound: CC(=O)c1cnc2ccc(-c3cc(Cl)c(O)c(Cl)c3)nc2c1N[C@H]1CC[C@H](CN(C)C)CC1
In short: as §1

ralimetinib = compound: CC(C)(C)Cn1c(N)nc2ccc(-c3[nH]c(C(C)(C)C)nc3-c3ccc(F)cc3)nc21 [ralimetinib]
In short: as §1

[10] = compound: CC(C)(O)CC(=O)NCCn1ccc2ncnc(Nc3ccc(Oc4cccc(C(F)(F)F)c4)c(Cl)c3)c21
In short: as §1

[11] = compound: CC(C)C1=C2N=C(C=C(N2N=C1)NCC3=CC=CC=C3)NCCCCCCN
In short: as §1

[12] = compound: CC1=C(C(CC(=O)N1)C2=CC=C(C=C2)C(F)(F)F)C(=O)NC3=C(C=C4C(=C3)C=NN4)F
In short: as §1

[13] = compound: CC1=C(C2=C(C=C1)C(=O)C3=CC=CC=C3N2CCCN)C
In short: as §1

[14] = compound: CC1=C(C=C(C=C1)NC(=O)C2=CC(=CC=C2)C(C)(C)C#N)NC3=CC4=C(C=C3)N=CN(C4=O)C
In short: as §1

[15] = compound: CC1=C(C=C(C=C1)NC(=O)C2=CC(=CC=C2)N(C)C)NC(=O)C3=CC=C(C=C3)O
In short: as §1

[16] = compound: CC1=CC=C(C=C1)SC2=C3C=C(SC3=CN=C2)C(=O)N
In short: as §1

Measured: log2 fold change

TPST2 (UniProt O60704)
inactive: erlotinib -0.064 | [1] -0.062 | [2] 0.042 | [3] 0.049 | [4] -0.002 | [5] -0.016 | [6] -0.06 | [7] 0.015 | [8] 0.032 | IRAK-1-4 Inhibitor I -0.038 | ibrutinib -0.098 | [9] -0.036 | ralimetinib 0.006 | [10] 0.019 | [11] -0.08 | [12] 0.039 | [13] -0.06 | [14] -0.039 | [15] -0.036 | [16] -0.08

TOR3A (UniProt Q9H497)
inactive: erlotinib 0 | [1] 0.002 | [2] 0.006 | [3] -0.008 | [4] -0.01 | [5] -0.012 | [6] -0.087 | [7] 0.039 | [8] 0.013 | IRAK-1-4 Inhibitor I 0.021 | ibrutinib 0.008 | [9] 0.023 | ralimetinib 0.002 | [10] -0.017 | [11] -0.001 | [12] 0.018 | [13] -0.022 | [14] -0.036 | [15] 0.018
active: [16] 0.365

TMEM68 (UniProt Q96MH6)
inactive: erlotinib 0 | [1] -0.032 | [2] -0.008 | [3] 0.038 | [4] -0.015 | [5] -0.017 | [6] -0.05 | [7] -0.007 | [8] -0.055 | IRAK-1-4 Inhibitor I 0.045 | ibrutinib -0.008 | [9] 0.017 | ralimetinib 0.118 | [10] -0.058 | [11] -0.055 | [12] 0.042 | [13] 0.003 | [14] -0.023 | [15] 0.019 | [16] -0.035

TMEM205 (UniProt Q6UW68)
inactive: erlotinib -0.066 | [1] -0.157 | [2] -0.003 | [3] 0.087 | [4] -0.105 | [5] -0.016 | [6] -0.069 | [7] -0.102 | [8] 0.021 | IRAK-1-4 Inhibitor I 0.125 | ibrutinib 0.002 | [9] -0.007 | ralimetinib 0.044 | [10] 0.017 | [11] 0.005 | [12] 0.074 | [13] -0.049 | [14] 0.044 | [15] -0.026 | [16] 0.005

TMPO (UniProt P42166)
inactive: erlotinib 0.026 | [1] -0.038 | [2] 0.012 | [3] -0.097 | [4] -0.03 | [5] -0.024 | [6] -0.026 | [7] -0.004 | [8] 0.005 | IRAK-1-4 Inhibitor I 0.008 | ibrutinib -0.025 | [9] -0.018 | ralimetinib -0.087 | [10] -0.004 | [11] 0.018 | [12] 0.011 | [13] 0 | [14] 0.024 | [15] 0.047 | [16] -0.026

TMSB10 (UniProt P63313)
inactive: erlotinib 0.076 | [1] 0.145 | [2] -0.064 | [3] 0.01 | [4] 0.061 | [5] -0.035 | [6] 0.054 | [7] -0.027 | [8] 0.093 | IRAK-1-4 Inhibitor I -0.079 | ibrutinib 0 | [9] -0.183 | ralimetinib -0.011 | [10] -0.025 | [11] -0.021 | [12] -0.059 | [13] 0.071 | [14] 0.106 | [15] -0.016 | [16] 0.049

TNFAIP2 (UniProt Q03169)
inactive: erlotinib 0.012 | [1] -0.01 | [2] 0.003 | [3] 0.046 | [4] 0.012 | [5] 0.068 | [6] -0.067 | [7] -0.111 | [8] 0.076 | IRAK-1-4 Inhibitor I 0.086 | ibrutinib 0.011 | [9] -0.023 | ralimetinib -0.187 | [10] -0.264 | [11] -0.073 | [12] -0.063 | [13] -0.136 | [14] 0.092 | [15] -0.066 | [16] -0.043

TOMM5 (UniProt Q8N4H5)
inactive: erlotinib -0.004 | [1] 0.122 | [2] 0.013 | [3] 0.112 | [4] 0.039 | [5] -0.16 | [6] 0.035 | [7] 0.221 | [8] 0.084 | IRAK-1-4 Inhibitor I -0.025 | ibrutinib -0.125 | [9] -0.05 | ralimetinib 0.051 | [10] -0.058 | [11] -0.02 | [12] 0.063 | [13] -0.096 | [14] -0.02 | [15] 0.078 | [16] -0.018

TMX2 (UniProt Q9Y320)
inactive: erlotinib -0.013 | [1] 0.001 | [2] -0.015 | [3] 0.041 | [4] 0.03 | [5] -0.037 | [6] 0.01 | [7] -0.026 | [8] -0.012 | IRAK-1-4 Inhibitor I 0.036 | ibrutinib 0.022 | [9] 0.014 | ralimetinib 0 | [10] -0.021 | [11] 0.012 | [12] -0.031 | [13] 0.02 | [14] 0.108 | [15] -0.015 | [16] -0.004

TMEM38B (UniProt Q9NVV0)
inactive: erlotinib -0.025 | [1] -0.058 | [2] 0.002 | [3] 0.033 | [4] -0.012 | [5] -0.06 | [6] -0.215 | [7] 0.017 | [8] 0.01 | IRAK-1-4 Inhibitor I 0.056 | ibrutinib -0.015 | [9] 0.005 | ralimetinib 0.007 | [10] -0.065 | [11] 0.054 | [12] -0.009 | [13] -0.102 | [14] -0.005 | [15] 0.001 | [16] -0.057

TNFRSF10A (UniProt O00220)
inactive: erlotinib -0.049 | [1] -0.103 | [2] 0.016 | [3] 0.007 | [4] -0.004 | [5] 0.02 | [6] -0.004 | [7] 0.037 | [8] -0.016 | IRAK-1-4 Inhibitor I -0.019 | ibrutinib -0.016 | [9] -0.015 | ralimetinib 0.031 | [10] -0.069 | [11] 0.048 | [12] 0.059 | [13] -0.006 | [14] 0 | [15] 0.028 | [16] 0.007

2 neighbouring records already listed:
TNFAIP2 (UniProt Q03169)
inactive: erlotinib 0.012 | [1] -0.01 | [2] 0.003 | [3] 0.046 | [4] 0.012 | [5] 0.068 | [6] -0.067 | [7] -0.111 | [8] 0.076 | IRAK-1-4 Inhibitor I 0.086 | ibrutinib 0.011 | [9] -0.023 | ralimetinib -0.187 | [10] -0.264 | [11] -0.073 | [12] -0.063 | [13] -0.136 | [14] 0.092 | [15] -0.066 | [16] -0.043

TOMM5 (UniProt Q8N4H5)
inactive: erlotinib -0.004 | [1] 0.122 | [2] 0.013 | [3] 0.112 | [4] 0.039 | [5] -0.16 | [6] 0.035 | [7] 0.221 | [8] 0.084 | IRAK-1-4 Inhibitor I -0.025 | ibrutinib -0.125 | [9] -0.05 | ralimetinib 0.051 | [10] -0.058 | [11] -0.02 | [12] 0.063 | [13] -0.096 | [14] -0.02 | [15] 0.078 | [16] -0.018

Additional entries.

TMEM70 (UniProt Q9BUB7)
inactive: erlotinib -0.018 | [1] -0.003 | [2] -0.106 | [3] 0.03 | [4] 0.038 | [5] -0.073 | [6] 0.011 | [7] 0.006 | [8] -0.028 | IRAK-1-4 Inhibitor I 0.086 | ibrutinib 0.001 | [9] -0.026 | ralimetinib 0.012 | [10] -0.063 | [11] -0.002 | [12] -0.01 | [13] 0.01 | [14] 0.103 | [15] 0.058 | [16] 0.003

TOM1L2 (UniProt Q6ZVM7)
inactive: erlotinib -0.024 | [1] -0.103 | [2] 0.009 | [3] 0.045 | [4] -0.122 | [5] 0.036 | [6] 0.002 | [7] -0.02 | [8] -0.013 | IRAK-1-4 Inhibitor I -0.015 | ibrutinib -0.034 | [9] 0 | ralimetinib 0.099 | [10] 0.002 | [11] 0 | [12] -0.051 | [13] -0.01 | [14] 0.006 | [15] -0.069 | [16] -0.039

TOE1 (UniProt Q96GM8)
inactive: erlotinib -0.035 | [1] -0.064 | [2] 0.006 | [3] 0.036 | [4] 0.054 | [5] -0.021 | [6] -0.024 | [7] 0 | [8] -0.035 | IRAK-1-4 Inhibitor I -0.021 | ibrutinib 0.011 | [9] -0.001 | ralimetinib 0.007 | [10] 0.003 | [11] 0.008 | [12] -0.061 | [13] -0.023 | [14] -0.02 | [15] 0.014 | [16] 0.011

TMEM87B (UniProt Q96K49)
inactive: erlotinib -0.016 | [1] 0.103 | [2] 0.093 | [3] -0.003 | [4] 0.117 | [5] 0.03 | [6] -0.019 | [7] 0.006 | [8] -0.008 | IRAK-1-4 Inhibitor I -0.045 | ibrutinib -0.076 | [9] -0.017 | ralimetinib -0.003 | [10] -0.001 | [11] -0.047 | [12] -0.011 | [13] -0.01 | [14] -0.012 | [15] 0.028 | [16] -0.012

TMEM214 (UniProt Q6NUQ4)
inactive: erlotinib 0.051 | [1] -0.031 | [2] 0.07 | [3] 0.05 | [4] 0.005 | [5] -0.033 | [6] -0.051 | [7] -0.062 | [8] 0.043 | IRAK-1-4 Inhibitor I -0.005 | ibrutinib 0.036 | [9] 0.022 | ralimetinib 0.017 | [10] -0.034 | [11] 0.023 | [12] 0.022 | [13] 0.155 | [14] -0.028 | [15] -0.015 | [16] 0
